The text below walks through data of PubChem BioAssay AID445 (National Center for Advancing Translational Sciences (NCATS), 2006).

Where “and” joins values, the source holds several entries; their conditions need not be identical. Equal entries are not always repeated. This is one part of the list. These are further read-outs of the screen, such as a control signal, another cell line or another target. No call is given for them. Compounds called inactive in the main read-out are mostly missing here. Potencies come from curve fits of mixed quality, noted in brackets.

A short description of the assay: IkB Signaling. The following applies: ABC-DLBCL IkBa-CBG/CBR dual luciferase ratio (green luciferase fused to IkBa over red control in OCI-Ly3 lymphoma cells), 4 h. In short, it runs like this: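 Luminescence ratio of IκBα-fused green versus native red beetle luciferase in OCI-Ly3 cells, 4 h post-doxycycline with compound; red signal alone, scaled from basal (0%) to zero light (-100%), flagged nonspecific or cytotoxic effects.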
Setting [1] is: measured here: control luc red channel unless noted.
[2] abbreviates: measured here: IkB-luc green channel.
[3] abbreviates: measured here: control luc red channel.

Usually AC50 stands for the midpoint of the concentration-response curve, whichever way the signal moves.

With `COc1ccc(C2c3c(n(C)c4ccccc34)C(=O)N2CC(=O)Nc2cccc(F)c2)cc1` (stereo not drawn), under setting [1], the AC50 was 15.8 µM [falling, partial curve].

In the case of `Cc1ccc(N2CC(C)Cn3c2nc2c3c(=O)n(Cc3cccc(Cl)c3)c(=O)n2C)cc1` (stereo not drawn), the AC50 under setting [1] is 39.8 µM [falling, single point]. On the same count and under the same terms, the same measure for `COc1ccc(NC(=O)c2oc3ccc(S(=O)(=O)N4CCOCC4)cc3c2C)cc1`: 12.6 µM [falling, single point]; for `CCCc1cc(=O)[nH]c2nnc(SCC)n12`: 31.6 µM [falling, single point]; for `COc1cc(C2Nc3c(C)cc(C)cc3-c3cc(C)nn32)cc(OC)c1O` (stereo not drawn): 25.1 µM [falling, single point]. For `CCCS(=O)(=O)NCCc1sc2nc(-c3ccc(F)cc3)nn2c1C`, the AC50 under setting [1] is 25.1 µM [falling, partial curve, poor fit]. Regarding `Cc1cc(C)n(-c2nnc(Nc3ccc(C)c(Cl)c3)c3ccccc23)n1`, under setting [1], the AC50 was 25.1 µM [falling, partial curve]. As for `COc1ccc(C2=NC(C)(C)N(CC(=O)Nc3cccc(C)c3)C2=O)cc1`, under setting [1], the AC50 is 12.6 µM [falling, partial curve]. Turning to `COc1ccc(Cn2c(C(=O)O)c(CNCCc3cc(OC)ccc3OC)c3ccc(C)cc32)cc1`, under setting [1], the AC50 is 25.1 µM [falling, partial curve, poor fit].

Turning to `CN(C)C(=O)c1c(NC(=O)c2ccccc2F)sc2c1CCCC2`, the AC50 under setting [1] was 39.8 µM [falling, single point]. Still for that read-out and setting: the same measure for `CCCC(=O)Nc1cccc(NC(=O)c2ccc3c(c2)OCCO3)c1`: 3.98 µM [falling, partial curve]. As to `Cc1ccc(S(=O)(=O)Nc2nc3n(n2)C(c2ccc(F)cc2)C=C(c2ccccc2)N3)cc1` (stereo not drawn), the AC50 under setting [1] is 39.8 µM [falling, single point]. For `CC1=C(C(=O)Nc2ccc(Cl)cc2)C(CC(C)C)n2nc(SCc3ccccc3C)nc2N1` (stereo not drawn), the AC50 under setting [1] is 15.8 µM [falling, partial curve, poor fit]. Take `CCCCOc1cccc(C(=O)N(Cc2ccc(C)o2)c2ccccn2)c1`: the AC50 under setting [1] is 12.6 µM [falling, partial curve]. As to `CCOc1ccc(CCNC(=O)c2cnc3sc(N4CCCC4)nn3c2=O)cc1`, the AC50 under setting [1] is 20 µM [falling, partial curve].

Turning to `CCOC(=O)Cn1c(=O)oc2cc(S(=O)(=O)NCC3CCCO3)ccc21` (stereo not drawn), the AC50 under setting [1] is 10 µM [falling, partial curve]. For `CCOC(=O)Cc1csc(NC(=O)c2cccs2)n1`, under setting [1], the AC50 was 12.6 µM [falling, partial curve]. Turning to `Cc1onc(-c2c(F)cccc2Cl)c1C(=O)OCn1nnc2ccccc2c1=O`, the half-maximal activity concentration (AC50) under setting [1] was 0.316 µM [falling, full curve]. The same measure, in the same setting: the same measure for `COc1ccc(NS(=O)(=O)c2ccc3[nH]c4c(c3c2)CCCC4)cc1OC`: 20 µM [falling, single point]; for `Cc1cc(N)c(NC2=CC(=O)CC(C)(C)C2)cc1C`: 20 µM [falling, partial curve]. With `CCn1c(CN2CCCCC2)nc2cc(NC(=O)c3cc(OC)c(OC)c(OC)c3)ccc21`, under setting [1], the concentration at half-maximal activity (AC50) was 31.6 µM [falling, partial curve]. Still for that read-out and setting: then `COc1ccc(Nc2c3c(nc4ccc(NC(=O)c5ccc(F)cc5)cc24)CCCC3)cc1OC`, with 15.8 µM [falling, partial curve]; and `Cc1ccc(Cl)cc1N1CCN(CCCNC(=O)c2ccc3nc(N4CCCCC4)sc3c2)CC1`, with 12.6 µM [falling, partial curve]. Turning to `O=C(CSc1cccc2cccnc12)N1CCCC1`, the AC50 under setting [1] is 3.98 µM [rising, full curve] [measured here: IkB-luc green channel]. As to `O=C(NC1(C(F)(F)F)NC(=O)N(CCc2ccccc2)C1=O)c1ccc(Cl)cc1` (stereo not drawn), the AC50 under setting [1] is 15.8 µM [falling, partial curve].

Regarding `Oc1c(C(c2ccccc2)N2CCC(O)CC2)sc2nc(-c3ccco3)nn12` (stereo not drawn), under setting [1], the AC50 was 3.16 µM [rising, full curve]. In the case of `CCOc1ccccc1CNc1nc2nc(C)cc(C)n2n1`, the AC50 under setting [1] is 1.26 µM [falling, single point]. On to `O=C(NCCCN1CCN(c2ccccc2)CC1)c1ccc2nc(Cc3ccccc3)oc2c1`, for which, under setting [1], the AC50 is 10 µM [falling, partial curve, poor fit]. For `Cc1ccc(Cn2c(C(C)NC(=O)c3ccccc3)nc3ccccc32)cc1` (stereo not drawn), the AC50 under setting [1] is 20 µM [falling, single point]. On the same count and under the same terms, then `COc1cc(C(c2sc3nc(C)nn3c2O)N2CCN(c3ccccc3)CC2)cc(OC)c1OC` (stereo not drawn), with 10 µM [falling, partial curve]; and `Cc1noc(C)c1S(=O)(=O)N1CCC(C(=O)N2CCN(c3cccc(C(F)(F)F)c3)CC2)CC1`, with 25.1 µM [falling, partial curve]. On to `CCC1CCCCN1C(=O)CSc1nc2c([nH]c3ccccc32)c(=O)n1-c1ccc(OC)cc1` (stereo not drawn), for which the AC50 under setting [1] was 20 µM [falling, single point].

As for `Cc1cccc(Cn2cccc2CNS(=O)(=O)c2ccc(Br)cc2)c1`, the AC50 under setting [1] was 12.6 µM [falling, partial curve]. On the same count and under the same terms, the same measure for `COc1cc(-c2nnc(SCCOc3cc(C)cc(C)c3)o2)cc(OC)c1OC`: 3.16 µM [rising, partial curve]. On the same count and under the same terms, then `O=C(c1cc2nc(-c3ccco3)cc(C(F)(F)F)n2n1)N1CCN(c2ccc(F)cc2)CC1`, with 31.6 µM [falling, single point]; and `COc1ccc(NC(=O)c2cccs2)cc1O`, with 15.8 µM [falling, partial curve]. With `COc1ccc(S(=O)(=O)Nc2cc(S(=O)(=O)c3ccccc3)c(O)c(C)c2C)cc1`, under setting [1], the AC50 was 2.51 µM [falling, full curve]. The same measure, in the same setting: then `COC(=O)C(C)N(C#N)c1nc(C)nc(C)n1` (stereo not drawn), with 12.6 µM [falling, partial curve]. As for `Cc1cc(OC(C)C(=O)Nc2sc3c(c2C(N)=O)CCCC3)ccc1Cl` (stereo not drawn), the AC50 under setting [1] was 12.6 µM [rising, partial curve, poor fit]. As for `CCOC(=O)N1CCN(S(=O)(=O)c2ccc(OC)c3ccccc23)CC1`, the AC50 under setting [1] is 12.6 µM [falling, partial curve]. As for `COc1ccc(OC)c(NC(=O)CN(c2ccc(C)cc2)S(=O)(=O)c2c(C)noc2C)c1`, the AC50 under setting [1] is 12.6 µM [falling, partial curve]. On to `COc1cccc(-c2nc(S(=O)(=O)c3ccc(C)cc3)c(N3CCCCC3)o2)c1`, for which, under setting [1], the AC50 was 39.8 µM [falling, single point]. Turning to `Nc1c(Nc2ccccc2)c2ccccc2oc1=O`, the AC50 under setting [1] was 39.8 µM [falling, single point]. Consider `CCOC(=O)c1c(C)oc2ncnc(Nc3ccc(OC)c(OC)c3)c12`, for which the half-maximal activity concentration (AC50) under setting [1] was 6.31 µM [rising, full curve]. Still for that read-out and setting: then `CCOC(=O)c1ccccc1NC(=O)CSc1nccn1Cc1ccco1`, with 31.6 µM [falling, single point]; and `CC(C)Oc1ccc(C(=O)N(Cc2ccco2)Cc2cccs2)cc1`, with 31.6 µM [falling, single point].

With `Cc1cccc(C)c1NC(=O)c1sc(-n2nc(C)c(Cc3ccccc3)c2C)nc1C`, the AC50 under setting [1] is 0.1 µM [falling, full curve, poor fit]. For `O=C(CSc1ncc(S(=O)(=O)c2ccc(Cl)cc2)c(=O)[nH]1)Nc1cccc(C(F)(F)F)c1`, under setting [1], the AC50 was 5.01 µM [falling, partial curve]. Turning to `Cc1cc(OCC(=O)N(Cc2ccc(N(C)C)cc2)CC2CCCO2)ccc1Cl` (stereo not drawn), the AC50 under setting [1] was 15.8 µM [falling, partial curve]. Regarding `CC(C)c1ccc2oc(-c3ccc(N)cc3)nc2c1`, under setting [1], the AC50 was 0.0631 µM [falling, full curve]. Same read-out and setting: the same measure for `COc1ccc(-c2cc3nc(C)c(CCC(=O)NC4CCCCC4)c(C)n3n2)c(OC)c1`: 1.26 µM [falling, full curve]. In the case of `CCC(c1nnnn1C(C)(C)CC)N(CCCO)Cc1cc2cccc(C)c2[nH]c1=O` (stereo not drawn), the AC50 is 39.8 µM [rising, single point] under setting [2] and 20 µM [falling, partial curve] under setting [3]. Consider `COc1ccc(C2CC(=O)c3cc(-c4nc(-c5ccc(Cl)cc5)cs4)c(=O)[nH]c3C2)cc1OC` (stereo not drawn), for which the AC50 under setting [1] is 7.94 µM [falling, partial curve].

With `CCn1cc(C(=O)N2CCN(c3cccc(C)c3C)CC2)c2cc(OC)c(OC)cc2c1=O`, the AC50 under setting [1] is 39.8 µM [falling, single point]. The same measure, in the same setting: the same measure for `Cc1ccccc1C(=O)n1nc(-c2cccnc2)nc1NCc1ccccc1`: 0.2 µM [falling, full curve, poor fit]. Consider `CCOC(=O)c1sc2nc(-c3ccco3)c3c(c2c1N)CC(C)(C)OC3`, for which, under setting [1], the AC50 is 12.6 µM [falling, partial curve]. With `Cc1ccc(CNC(=O)CCS(=O)(=O)c2cc(Br)cc3c2N(C(=O)C2CC2)CC3)cc1`, the half-maximal activity concentration (AC50) under setting [1] is 31.6 µM [falling, single point].

Regarding `COc1cc2c(c(OC)c1OC)-c1ccc(OC)c(=O)cc1[C@@H](NC(C)=O)CC2`, the AC50 is 12.6 nM [rising, full curve] and 20 nM [rising, full curve] under setting [2]; 6.31 µM [rising, partial curve] and 12.6 nM [rising, full curve] and 15.8 nM [rising, full curve] under setting [3]. Consider `CC(C)[C@H](CO)Nc1nc(Nc2cc(N)cc(Cl)c2)c2ncn(C(C)C)c2n1`, for which the AC50 under setting [1] was 0.631 µM [falling, full curve]. Consider `COc1ccccc1CCNC(=O)C(=O)NCC(c1ccco1)S(=O)(=O)c1ccc(C)cc1` (stereo not drawn), for which the AC50 under setting [1] is 39.8 µM [falling, single point].

As for `Cc1cc(C)c(S(=O)(=O)NCC(c2cccs2)S(=O)(=O)c2ccccc2)c(C)c1` (stereo not drawn), the AC50 under setting [1] was 31.6 µM [rising, single point] [measured here: IkB-luc green channel].
